# Source: PubChem BioAssay (NCATS)
# “And” between values parts separate entries of the source, which are not always exact repeats. Equal values may be shown once. Inconclusive results, whose numbers are uncertain, are shown with a selection of clear calls. A potency beside an inconclusive call is a rough fit, not a confirmed value. The source made the active and inactive calls. Unless noted, calls come from the whole dose curve; as a rule, active = well fitted curve in the direction sought with a large enough effect; inconclusive = small, poorly fitted or top-dose-only effect, or another doubt; inactive = no such curve, though single readings can be large; an effect the other way counts as inactive or inconclusive.
# Columns and labels:
# [1] = qHTS Assay for Identification of Small Molecule Agonists for NFkB Signaling Pathway. (AID 624478)
# Procedure, shortened: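 Compounds were added with 10 pM TNF alpha (EC50 level) to ME-180 NFkB-bla cells in low-serum Opti-MEM and incubated 5 hrs at 37 C. Beta-lactamase FRET read-out used 405 nm excitation and 460 and 530 nm emission.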
# [2] = Cell Proliferation Assay against the TMD8 Cell Line (Caspase readout at 16 hrs) (AID 651712); note: potency is the fitted concentration of half-maximal effect
# Procedure, shortened: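 16 h, 37 °C, TMD8 (500 cells/well), RPMI/5% FBS no phenol red; Caspase-Glo 3/7, 15 min RT, luminescence; %act: DMSO 0, bortezomib 9.2 uM final 100.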
# [3] = Cytotoxicity counterscreen for NFkB agonists and antagonists (AID 624476);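 note: potency is the fitted concentration of half-maximal effect; cells exposed to compound for 48 hours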
# [4] = qHTS Assay for Identification of Small Molecule Antagonists for NFkB Signaling Pathway. (AID 624479; calls by dose curve;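 note: pathway stimulated with TNF alpha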; note: potency is the fitted concentration of half-maximal effect)
# [5] = Cell Proliferation Assay against the TMD8 Cell Line (Caspase readout at 8 hrs) (AID 651713); conditions: TMD8 lymphoma cells, caspase activation luminescence; caspase activation: at 46.1 µM (top of the series); note: potency is the fitted concentration of half-maximal effect
# Procedure, shortened: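 Apoptosis read-out: Caspase-Glo luminescence after 8 h compound exposure of TMD8 lymphoma cells at 37C, 5% CO2. Signals were normalized as percent activity between DMSO and bortezomib (9.2 uM final) controls.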
structure (smiles),measurement,setting,value
Cn1cc(-c2ccc3nnc(Sc4ccc5ncccc5c4)n3n2)cn1,Potency,[1],"inconclusive: 11.8 µM [activator, single point]"
same,Potency,[2],inactive
C=CC(=O)Nc1cccc(Oc2nc(Nc3ccc(N4CCN(C)CC4)cc3OC)ncc2Cl)c1,Potency,[3],"inconclusive: 16.6 µM [inhibitor, partial curve]"
same,Potency,[4],inactive
same,Potency,[2],"inconclusive: 5.9 µM [activator, full curve, poor fit]"
same,Potency,[5],active: 7.43 µM
COc1cc2c(cc1OC)[C@@H]1C(=O)c3ccc4c(c3O[C@@H]1CO2)C=CC(C)(C)O4,Potency,[3],active: 26.4 µM
same,Potency,[2],"inconclusive: 33.2 µM [activator, single point]"
CC(C)C[C@H](NC(=O)c1cc2ccccc2s1)C(=O)N1CCN(C(=O)[C@H](CO)NS(=O)(=O)c2ccc(Cl)cc2Cl)CC1,Potency,[4],"inconclusive: 21.1 µM [inhibitor, single point]"
Clc1ccc2ncc(-c3cccc(NC4CNC4)n3)n2c1,Potency,[3],"inconclusive: 33.2 µM [inhibitor, single point]"
same,Potency,[2],"inconclusive: 29.6 µM [activator, single point]"
CC(C)(C)OC(=O)Nc1ccc(-c2cc(C(=O)NCCCCCCC(=O)NO)no2)cc1,Potency,[3],"inconclusive: 33.2 µM [inhibitor, single point]"
same,Potency,[2],active: 1.32 µM
same,Potency,[5],"inconclusive: 23.5 µM [activator, partial curve, poor fit]"
COc1cc(Nc2ncc3c(n2)-c2ccc(Cl)cc2C(c2c(F)cccc2OC)=NC3)ccc1C(=O)O,Potency,[3],"inconclusive: 18.7 µM [inhibitor, partial curve]"
same,Potency,[2],"inconclusive: 33.2 µM [activator, single point]"
O=C(NOC[C@H](O)CO)c1ccc(F)c(F)c1Nc1ccc(I)cc1F,Potency,[3],"inconclusive: 26.4 µM [inhibitor, partial curve, poor fit]"
same,Potency,[2],inactive
COc1cc2c(N3CCN(C(=O)Nc4ccc(OC(C)C)cc4)CC3)ncnc2cc1OCCCN1CCCCC1,Potency,[3],"inconclusive: 33.2 µM [inhibitor, partial curve, poor fit]"
same,Potency,[2],"inconclusive: 33.2 µM [activator, single point]"
CCCCN1CCC(CNC(=O)c2c3n(c4ccccc24)CCCO3)CC1,Potency,[4],inactive
CCN(CC)CCCCNc1nc2cc(Cl)c(Cl)cc2nc1-c1ccc(-c2cccs2)s1,Potency,[3],"inconclusive: 33.2 µM [inhibitor, single point]"
same,Potency,[2],inactive
O=C(NC1CCNCC1)c1[nH]ncc1NC(=O)c1c(Cl)cccc1Cl,Potency,[3],active: 209 nM and active: 296 nM
same,Potency,[2],active: 0.118 µM
Nc1ccccc1NC(=O)c1ccc(CNc2nccc(-c3cccnc3)n2)cc1,Potency,[4],active: 0.15 µM

# 2 entries from above in a different format.
structure (smiles)	measurement	setting	value
O=C(NC1CCNCC1)c1[nH]ncc1NC(=O)c1c(Cl)cccc1Cl	Potency	[2]	active: 0.118 µM
Nc1ccccc1NC(=O)c1ccc(CNc2nccc(-c3cccnc3)n2)cc1	Potency	[4]	active: 0.15 µM
